# From paper PMC6270530, “Structural Characterization of de Novo Designed L5K5W Model Peptide Isomers with Potent Antimicrobial and Varied Hemolytic Activities” (Molecules, 2013)
# No end group written: not given here.
# System: human red blood cells
# Format: cell-based
# Conditions: TI' = MHC/GM; for TI' (pseudo-therapeutic index) (+, −): against all nine of the tested strains; for TI' (pseudo-therapeutic index) (−): against five Gram-negative strains tested; for TI' (pseudo-therapeutic index) (+): against four Gram-positive strains tested
# Protocol: The hemolytic assay was performed as described previously. In brief, suspensions of human red blood cells (10% v/v in PBS) were treated for 1 h with various concentrations (1–128 μg/mL, two-fold serial dilutions) of the peptides. The absorbance of the supernatant was then measured at 550 nm. The relative value to 100% hemolysis of human red blood cells treated with 0.2% Triton X-100 was defined as the percentage of hemolysis. The tests were performed using triplicate samples, and the average values of the three independent measurements were recorded. The minimal hemolytic concentration (MHC) value was determined as the lowest peptide concentration that produces more than 5% hemolysis.
Substance,"TI' (pseudo-therapeutic index) (+, −)",TI' (pseudo-therapeutic index) (−),TI' (pseudo-therapeutic index) (+)
LKWLKKLLKKL-NH2 [W3],20.2,18.4,22.6
KKLLKWLKKLL-NH2 [W6],10.1,9.2,11.3
KLLKWLKKLLK-NH2 [W5],27.4,24.3,32.0
LKKLLKKLLKW-NH2 [W11],43.5,36.8,53.8
KWLKKLLKKLL-NH2 [W2],6.9,7.0,6.7
LLKWLKKLLKK-NH2 [W4],43.5,36.8,53.8
LKKLLKWLKKL-NH2 [W7],47.0,42.2,53.8
WLKKLLKKLLK-NH2 [W1],11.8,10.6,13.5
KLLKKLLKWLK-NH2 [W9],27.4,27.9,26.9
KKLLKKLLKWL-NH2 [W10],21.8,18.4,26.9
LLKKLLKWLKK-NH2 [W8],32.0,27.9,38.1
